According to PubChem BioAssay AID493014 (National Center for Advancing Translational Sciences (NCATS), 2011):
The other results are listed elsewhere or left out. The main result of the screen is listed elsewhere. These columns were measured beside it and carry no call. Compounds called inactive in the main read-out are mostly missing here. Potencies come from curve fits of mixed quality, noted in brackets.

Assay: qHTS Assay to Find Inhibitors of Chronic Active B-Cell Receptor Signaling
Conditions: ABC-DLBCL IkBa-CBG/CBR reporter, luminescence ratio (green luciferase fused to IkBa over red control in TMD8 lymphoma cells), 4 h
Summary of the method: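 Cell line TMD8 (human ABC DLBCL), stably expressing tet-inducible CBG68-IkBa fusion and CBR; IMDM/0.5% FBS; cpd up to 46 uM; dox induction, 4 h, 37C/5% CO2; dual luminescence; green/red ratio; MG132 control.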

[1] = measured here: CBR red luminescence, cell number
[2] = measured here: IkBa-CBG green luminescence

Row | SMILES | AC50 [1] | AC50 [2]
1 | COc1ccc(C=O)cc1COc1ccc(F)cc1F | 29.1 µM [rising, single point] | 32.6 µM [falling, partial curve, poor fit]
2 | NC(=O)c1oc2ccccc2c1NC(=O)c1ccc(F)cc1 | 0.82 µM [falling, full curve] | –
3 | COc1ccc(-c2nc3ncccc3n2O)cc1 | 12.6 µM [falling, single point] | –
4 | COc1ccc(Nc2cc(C(=O)NCCCN3CCN(C)CC3)c3ccccc3n2)cc1OC | 1.12 µM [falling, full curve, poor fit] | –
5 | CCN(CC)S(=O)(=O)c1ccc(C(=O)OCC(=O)c2ccc3c(c2)NC(=O)CO3)cc1 | 17.8 µM [rising, single point] | –
6 | Cc1ccc(C(=O)N/N=C\c2cccs2)cn1 | 1.12 µM [falling, partial curve, poor fit] | –
7 | COc1ccc(NC(=O)CNC(=O)c2ccco2)cc1S(=O)(=O)Nc1cc(C)ccc1Br | 25.9 µM [rising, single point] | –
8 | CC(Oc1cccc(Cl)c1)c1ccnc2nc(/N=C/N(C)C)nn12 (stereo not given) | 11.2 µM [falling, partial curve, poor fit] | –
9 | COc1cc(SC)ccc1C(=O)Nc1nc(C)cs1 | 4.47 µM [falling, partial curve, poor fit] | 12.6 µM [rising, partial curve, poor fit]
10 | CC1CC(=O)Nc2ccccc2N1S(=O)(=O)c1ccc(F)cc1F (stereo not given) | 6.31 µM [falling, single point] | –
11 | Cc1ccc(C(=O)N2CCCC(Nc3ccc(F)cc3)C2)cc1C (stereo not given) | 22.4 µM [falling, single point] | –
12 | Cc1ccc(Cn2cc(CCC(=O)O)c3ccccc32)cc1 | 35.5 µM [rising, single point] | –
13 | Fc1ccc(-c2nc(-c3cccs3)no2)cc1 | 1.41 µM [rising, full curve, poor fit] | –
14 | CCOc1cccc(-c2cc(C(=O)Nc3ccon3)c3ccccc3n2)c1 | 4.47 µM [falling, partial curve, poor fit] | –
15 | COc1ccc(NC(=O)c2c(NCc3cccs3)sc3c2CCCCC3)cc1 | 0.1 µM [falling, full curve, poor fit] | –
16 | CN(C1CCCCC1)S(=O)(=O)c1ccc(F)c(C(=O)Nc2ccc(C(F)(F)F)cc2)c1 | 0.224 µM [rising, full curve, poor fit] | –
17 | O=C(Nc1cccc(-c2nn[nH]n2)c1)c1ccc(Br)s1 | 28.2 µM [falling, single point] | 14.1 µM [rising, partial curve, poor fit]

As entered above.
For AC50 [1], COc1ccc(NC(=O)c2c(NCc3cccs3)sc3c2CCCCC3)cc1 has the entry 0.1 µM [falling, full curve, poor fit]
For AC50 [2], COc1cc(SC)ccc1C(=O)Nc1nc(C)cs1 has the entry 12.6 µM [rising, partial curve, poor fit]
